{
  "sequences": {"note": "Protein sequences, listed by entry. Tags and fused reporters are not part of them. Lines headed by an entry give the natural chain unless they say otherwise; changes in a name come on top.", "UniProt P06493": "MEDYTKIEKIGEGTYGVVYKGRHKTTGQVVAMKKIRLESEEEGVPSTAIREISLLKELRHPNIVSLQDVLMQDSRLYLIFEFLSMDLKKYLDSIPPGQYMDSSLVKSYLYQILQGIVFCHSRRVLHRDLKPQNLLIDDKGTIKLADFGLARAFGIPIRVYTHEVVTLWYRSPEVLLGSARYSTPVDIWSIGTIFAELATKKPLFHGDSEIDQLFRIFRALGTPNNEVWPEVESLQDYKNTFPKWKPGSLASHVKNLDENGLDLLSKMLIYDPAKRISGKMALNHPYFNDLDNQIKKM", "UniProt P50613": "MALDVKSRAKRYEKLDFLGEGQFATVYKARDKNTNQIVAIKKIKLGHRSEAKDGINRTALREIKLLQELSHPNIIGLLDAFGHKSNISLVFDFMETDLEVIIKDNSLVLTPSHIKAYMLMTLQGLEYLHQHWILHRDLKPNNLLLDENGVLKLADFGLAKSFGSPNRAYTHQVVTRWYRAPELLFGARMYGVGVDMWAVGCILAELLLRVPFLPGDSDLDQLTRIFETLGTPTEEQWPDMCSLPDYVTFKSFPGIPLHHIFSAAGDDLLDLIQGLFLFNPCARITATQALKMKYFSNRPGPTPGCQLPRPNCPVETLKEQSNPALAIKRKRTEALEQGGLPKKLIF"},
  "source": "paper PMC10449921",
  "biological_target": "CDK1 (human (endogenous in PC9 and H358)) (UniProt P06493)",
  "assay": "co-IP; endogenous proteins from lysates of LUAD cells (PC9, H358), with or without LINC00880 overexpression; Pierce Classic Magnetic IP/Co-IP Kit, western blotting",
  "note": "Results are given in words; binding and its absence hold for the method and conditions named. In cells and extracts the contact can be indirect. Some results given as binding are weak or reduced against the parent protein; the word gives no strength.",
  "data": [
    {"substance": "CDK-activating kinases (CAKs), including CDK7, MNAT1, and cyclin H (from UniProt P50613 1-346; P51948 1-309; P51946 1-323) (complex)", "values": [
      {"measurement": "binding", "value": "binds"}
    ]}
  ]
}
